Test results reported in patent US20240228518A1, “NOVEL ORGANOTIN SILICATE COMPOUNDS, PREPARATION METHODS THEREOF AND PHOTORESIST COMPOSITION CONTAINING THE SAME” (JSI SILICONE CO., priority 2022, published 2024).

Assay: Electron beam exposure (sensitivity) of thin film from ethyl lactate/acetic acid solution
Conditions: 5 wt % solution in 70% ethyl lactate and 30% acetic acid, 2.38% TMAH

In the case of CC(=O)[O][Sn]([O]C(C)=O)([O]C(C)=O)[O][Si]([O][Sn]([O]C(C)=O)([O]C(C)=O)[O]C(C)=O)([O][Sn]([O]C(C)=O)([O]C(C)=O)[O]C(C)=O)[O][Sn]([O]C(C)=O)([O]C(C)=O)[O]C(C)=O [Example 14, tetrakis(triacetoxystannyl) silicate], the Photoresist tone (electron beam 1-789 μC/cm^2) is reported as “negative tone” and the D100 value (electron beam) is reported as 106 μC/cm^2.
